Some of the results follow.
target: OsWRKY34 (Oryza sativa, UniProt Q0JBA9 1-250); assay: protein-binding microarray (RPBM); PBS, 2% BSA, 51.3 ng/ul salmon testes DNA, 50 uM zinc acetate, 200 nM TF, 25 C, 1 h; high values mean tight binding; settings: protein: recombinant; tags: N-terminal polyhistidine and DsRed monomer fusion (pET32a); label: CyDye5-dUTP incorporated in the synthesized complementary strand; 3' TTTTT single-stranded linker to array surface; dsDNA, one strand shown
In short: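 An Axon 4000B scanner gave the binding signal as per-feature fluorescence intensity in arbitrary units. This followed washing of a custom Agilent array that had been incubated for 1 h at 25 °C with 200 nM protein in PBS, 2% BSA, salmon testes DNA and 50 µM zinc acetate. The proteins were transcription factors fused at the N-terminus to polyhistidine and DsRed, expressed in E. coli BL21-CodonPlus and purified on Ni–NTA.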

Protein sequences, listed by entry. Tags and fused reporters are not part of them.
UniProt Q0JBA9, entry or part of it: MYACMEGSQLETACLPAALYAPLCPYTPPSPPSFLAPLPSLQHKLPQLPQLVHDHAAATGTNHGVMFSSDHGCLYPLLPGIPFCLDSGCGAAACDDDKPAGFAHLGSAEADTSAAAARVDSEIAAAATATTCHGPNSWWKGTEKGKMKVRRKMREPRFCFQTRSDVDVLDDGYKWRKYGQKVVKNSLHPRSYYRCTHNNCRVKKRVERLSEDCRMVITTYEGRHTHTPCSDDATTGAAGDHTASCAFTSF

Sequence	binding signal
GGGGCTGAACAAGGAGTTTGAGGACAGAAGAGCGGCTATGCGGAGTCACCTAGTGCAG	8290 fluorescence intensity (a.u.)
ACTACATCCGCGCACCTGCTTTGCTCGTCGACGATTATAACGGAGTCACCTAGTGCAG	12900 fluorescence intensity (a.u.)
GATTACGTTCTTGAGAAATTATTAAAACTTTGCTTTTTTTCGGAGTCACCTAGTGCAG	9090 fluorescence intensity (a.u.)
GCCTAAGTGTTACGCACTCCGCTACTCCACTTTCTTGTGTCGGAGTCACCTAGTGCAG	8500 fluorescence intensity (a.u.)
CTGTAGTTGCCTTTGTTGGTCTTGGTTTTGCTGTTCTGGTCGGAGTCACCTAGTGCAG	9910 fluorescence intensity (a.u.)
GAGTGGATGGTTGGAATGGATGGGTTGGTGTAGATAATAACGGAGTCACCTAGTGCAG	14000 fluorescence intensity (a.u.)
GTCAGCATAGTCGCACACAAACGCGATTTCTTCTCCTCTCCGGAGTCACCTAGTGCAG	8200 fluorescence intensity (a.u.)
TTTCTTGGGCTGTATCGACTATCATTGTCTGACATTTCTACGGAGTCACCTAGTGCAG	12300 fluorescence intensity (a.u.)
TCGTCTAGATCACGTTTCTGGAGAGCTCCAGGGTCTCTTTCGGAGTCACCTAGTGCAG	8470 fluorescence intensity (a.u.)
ACAGCCAACATCTCTTGCATATGTACAACAATCAGCTGCCCGGAGTCACCTAGTGCAG	9090 fluorescence intensity (a.u.)
GTTAGGCGGTGGCGCGCGTACATACGTTCCCACTTATCATCGGAGTCACCTAGTGCAG	10100 fluorescence intensity (a.u.)
CTCTTAAATTTACGCTGTGGCTGATACTCCCTCTGTCCCGCGGAGTCACCTAGTGCAG	8240 fluorescence intensity (a.u.)
ACCATGGAAGATGCCGCTGTATTGTGTGTTCTTTTTGCTTCGGAGTCACCTAGTGCAG	9310 fluorescence intensity (a.u.)
AGGTGGTGAAGTGGAGTGGAGTGGAGAGTATCTTCTTCTTCGGAGTCACCTAGTGCAG	10000 fluorescence intensity (a.u.)
GTCGCAACCTGACCAACGTTAGTCCACACACACACTTCTTCGGAGTCACCTAGTGCAG	10200 fluorescence intensity (a.u.)
AGTGGGATCTAGTGATTGTGTGCTCGTTTGACCTCCATTTCGGAGTCACCTAGTGCAG	12500 fluorescence intensity (a.u.)
GCGTACTACCTCTCAACTTGGAGCATCTCTGCTTATTAGTCGGAGTCACCTAGTGCAG	8820 fluorescence intensity (a.u.)
ACCTTCGCTTTCTCCACACGCAACCGACCACCCCTTCTTCCGGAGTCACCTAGTGCAG	9110 fluorescence intensity (a.u.)
TGGCCTTGTTTTGGACTTTTTTCTTTTGGCATGGTGATGACGGAGTCACCTAGTGCAG	8100 fluorescence intensity (a.u.)
GCCTCCTGACCACGCGGGTTTTCTGCCCCTGCCGCTGACCCGGAGTCACCTAGTGCAG	8120 fluorescence intensity (a.u.)
TCTTTTCTCACGCTTTTTCCGTTACCCGCGAAGAGCTGAACGGAGTCACCTAGTGCAG	8610 fluorescence intensity (a.u.)

Another view of part of the listing above.
ACCATGGAAGATGCCGCTGTATTGTGTGTTCTTTTTGCTTCGGAGTCACCTAGTGCAG
  binding signal: 9310 fluorescence intensity (a.u.)
AGGTGGTGAAGTGGAGTGGAGTGGAGAGTATCTTCTTCTTCGGAGTCACCTAGTGCAG
  binding signal: 10000 fluorescence intensity (a.u.)

Going on with the list:

Sequence	binding signal
CTAATTTTCATATCCATACTTCTTCTAGGCATGCAACATACGGAGTCACCTAGTGCAG	8300 fluorescence intensity (a.u.)
TCTTCGATGGATTTGATGGTTTCATCACGCGTCTCCTCATCGGAGTCACCTAGTGCAG	11600 fluorescence intensity (a.u.)
TATGCCATCGTCCAACTTTATCGCGTCCTCCACACCAACTCGGAGTCACCTAGTGCAG	11800 fluorescence intensity (a.u.)
CGCACCATATCCAATTGTCATTCGCTGTTTCAACCGTCCTCGGAGTCACCTAGTGCAG	10700 fluorescence intensity (a.u.)
TCTACGTGTACCGTGTTTATCCCATCTGTTTTCCCCTTTACGGAGTCACCTAGTGCAG	16000 fluorescence intensity (a.u.)
TATCATTTATTTTATTATGACTTGATTTGTCATCAAATGTCGGAGTCACCTAGTGCAG	8390 fluorescence intensity (a.u.)
CCTTACTTTATCATTGCGGGTGCTCTTAGGCTAACATAAACGGAGTCACCTAGTGCAG	8080 fluorescence intensity (a.u.)
ACATCTAGCTTCATGCCTGCTTTCCTTACATAAATCCAAACGGAGTCACCTAGTGCAG	8490 fluorescence intensity (a.u.)
TTGATTCCGTGTCGCATATCTGTCTTAATTTCGTGGAAGGCGGAGTCACCTAGTGCAG	9570 fluorescence intensity (a.u.)
CATGGGTTTTGTTCAGGTTGTTGAGTTCTGGATCTGGGAACGGAGTCACCTAGTGCAG	8890 fluorescence intensity (a.u.)
TTGATCTCCACCGCCCGTTTCTTCCATCTGAGTCGTCCACCGGAGTCACCTAGTGCAG	9200 fluorescence intensity (a.u.)
TCGAAATGTTTGACACCGTTGACTTTTTAGCATATGTTTGCGGAGTCACCTAGTGCAG	33700 fluorescence intensity (a.u.)
TTATACAGTCCGCTAATATCGTCTTATTGTACTCACTCAACGGAGTCACCTAGTGCAG	11200 fluorescence intensity (a.u.)
GAGGATTCAGACATTTTCATCGTTGCTCTTATTCCTTTCACGGAGTCACCTAGTGCAG	9870 fluorescence intensity (a.u.)
TCACCCATCTCGTCATCTCCACCAACGCCGGCGCCCACACCGGAGTCACCTAGTGCAG	8870 fluorescence intensity (a.u.)
CCATCTACCTCAATGTTTTAGGATTCACCACTCATCACCACGGAGTCACCTAGTGCAG	8100 fluorescence intensity (a.u.)
AATTTCAGCTGTACCTTTTCACTCTTCTTTTCCATCTTAACGGAGTCACCTAGTGCAG	9460 fluorescence intensity (a.u.)
GCGGGCCCAGCTGTCATCCTCACCCCTGCCAGCCAAACTACGGAGTCACCTAGTGCAG	8090 fluorescence intensity (a.u.)
GCTCCTTGTTTAATTTAGACGTTGTCTTTTACTGTTTTGGCGGAGTCACCTAGTGCAG	9430 fluorescence intensity (a.u.)
AGACTTCTCATGGTACGAATGCTTTCTTTTTATTCTTCAACGGAGTCACCTAGTGCAG	10100 fluorescence intensity (a.u.)
TCAATTTGCGCGTCGCCGTCGTCTCCGCTTCTCCTAATTTCGGAGTCACCTAGTGCAG	12200 fluorescence intensity (a.u.)

Single values from the results shown:
binding signal, CATGGGTTTTGTTCAGGTTGTTGAGTTCTGGATCTGGGAACGGAGTCACCTAGTGCAG reads 8890 fluorescence intensity (a.u.)
binding signal, ACATCTAGCTTCATGCCTGCTTTCCTTACATAAATCCAAACGGAGTCACCTAGTGCAG reads 8490 fluorescence intensity (a.u.)

(listing goes on)

Sequence	binding signal
GAACCATGGCGTTGCGGTTGGATATCCTAACTTATATGTACGGAGTCACCTAGTGCAG	10600 fluorescence intensity (a.u.)
AAGTCTTTCATTTTCCTGCCATGCTCATGAACACAAATTACGGAGTCACCTAGTGCAG	9090 fluorescence intensity (a.u.)
GCACCACGCCGCGCGCCGTCAAACTCCGCCGTTCCGCCACCGGAGTCACCTAGTGCAG	8390 fluorescence intensity (a.u.)
TCTCTAGAAGCTTCACTACTTTTTTCATTTCTCTAACTCTCGGAGTCACCTAGTGCAG	8100 fluorescence intensity (a.u.)
CACCTCCTCCCTCGCCGCCGCCGCCGCCGCTGACTCCCACCGGAGTCACCTAGTGCAG	9720 fluorescence intensity (a.u.)
TTATCAGTCACTGGCAGATACATTTCGTTGATCCCACTCACGGAGTCACCTAGTGCAG	8810 fluorescence intensity (a.u.)
AGGTGAGGGGAGCGACGAGGGGTTCTTTGCGGCATACGACCGGAGTCACCTAGTGCAG	10500 fluorescence intensity (a.u.)
CCCTCTTTCCCATCTGTGTCACCTTCCACCGCTGTTCAAACGGAGTCACCTAGTGCAG	8420 fluorescence intensity (a.u.)
CATGTTGCGCGTATTTGATCTGTTCATGCTTTACTGCTTACGGAGTCACCTAGTGCAG	10500 fluorescence intensity (a.u.)
CATGAAGCCCACGAACGTATTCATTGTCATCGCCTCATTGCGGAGTCACCTAGTGCAG	8660 fluorescence intensity (a.u.)
CCTATTTTTAGTCGCTTCCTCTCTCTCTCTCTCTCTCTCTCGGAGTCACCTAGTGCAG	9540 fluorescence intensity (a.u.)
CCGGTCCTTCACCCACTTCAGCTTCACGTTCACCAGCGTCCGGAGTCACCTAGTGCAG	10200 fluorescence intensity (a.u.)
ATTTGCATGACATATATCATTACTACATTATTTTATATAGCGGAGTCACCTAGTGCAG	8930 fluorescence intensity (a.u.)
TTCCGCACCATCCATACAGACTGGCGTGTAGGCCCCACCTCGGAGTCACCTAGTGCAG	8510 fluorescence intensity (a.u.)
AGTAATCGGCGCCGTCTTTTCTTCCTTCACGCCAGCGTCGCGGAGTCACCTAGTGCAG	8820 fluorescence intensity (a.u.)
TCTCCCACAACACCGTCGACGCCTACCGCCACACCGGAGCCGGAGTCACCTAGTGCAG	10300 fluorescence intensity (a.u.)
TTGCGCTTCTTCATTTTCTTAGTTGGTTATAATGTATGTACGGAGTCACCTAGTGCAG	8300 fluorescence intensity (a.u.)
GATTCGATCAATTTTTGTGCTGCATGATGTACATGTGTTACGGAGTCACCTAGTGCAG	8140 fluorescence intensity (a.u.)
TCAGATCATTTTACCACCGTCCGTTCATAACACCCATGGCCGGAGTCACCTAGTGCAG	9080 fluorescence intensity (a.u.)
AATTCAAATTCATACTGTTCAAACAAAGTCATATAGAAAACGGAGTCACCTAGTGCAG	28600 fluorescence intensity (a.u.)
CGCCAGCCACCTCCGGCGCCGTTCGCCAGCCACCACGCGCCGGAGTCACCTAGTGCAG	9300 fluorescence intensity (a.u.)

Sequence	binding signal
AATTAATTCCTTTATCCATTTCTCATCTGTACACTCCAACCGGAGTCACCTAGTGCAG	11300 fluorescence intensity (a.u.)
GTAAATCCTTCTCAACTTCTCCTTAATTTTCTCATCTGTTCGGAGTCACCTAGTGCAG	11400 fluorescence intensity (a.u.)
GCATACATATGTTGCAGGGGTGGGACAGGTGCATGCATGACGGAGTCACCTAGTGCAG	8620 fluorescence intensity (a.u.)
CCCAATTTTTTGTCTCTACTAGGGTTTGGTTTCGGTCTGACGGAGTCACCTAGTGCAG	8230 fluorescence intensity (a.u.)
ACTTATATTTTGGTTCAGCCCTTTCCTGCACCTCCACTTTCGGAGTCACCTAGTGCAG	9300 fluorescence intensity (a.u.)
TTGCATGAGAGCCAATACTACCCACTTTTCCTTATCTCTCCGGAGTCACCTAGTGCAG	9380 fluorescence intensity (a.u.)
TCTATCCATCTATGACTTTATGAAATCATGTTTATACCGTCGGAGTCACCTAGTGCAG	9860 fluorescence intensity (a.u.)
AACTGGTTGGAGCTCCGTTTCTCTACTCTTTGAGCTTCTTCGGAGTCACCTAGTGCAG	8240 fluorescence intensity (a.u.)
AATATATGACGCCGTTAACTTTTCGAACAACATTTGACTACGGAGTCACCTAGTGCAG	9760 fluorescence intensity (a.u.)
CCCATTGTTCCCGCCGCCGCCGCGCCACGCGTCGCTCTGACGGAGTCACCTAGTGCAG	12200 fluorescence intensity (a.u.)
TTGGTTTGTATTGCGTTGTTTTGCACTTTTGTTTGTTGTGCGGAGTCACCTAGTGCAG	8300 fluorescence intensity (a.u.)
AAGTCGTCGCCTCCGGATTGCCCGCTGCTTGCCACCTCTCCGGAGTCACCTAGTGCAG	8110 fluorescence intensity (a.u.)
ATTTTTTGCTTCAGGAATTCATCTTTTTTATTTTTTATTTCGGAGTCACCTAGTGCAG	9060 fluorescence intensity (a.u.)
CTTATATGCCATTGGTCCAAATTTGCGCACCCTCTCGTGCCGGAGTCACCTAGTGCAG	10100 fluorescence intensity (a.u.)
TGGGATGTATTTGAGTTGTGATGCATTTCTTTTAGGATTTCGGAGTCACCTAGTGCAG	8310 fluorescence intensity (a.u.)
GCAAATGCCATTCTTCAGGTCGCCTTCACAAATAACCAACCGGAGTCACCTAGTGCAG	9520 fluorescence intensity (a.u.)
AGTTTCCTGTCCGTTGCTTTTCCAAAAGTTCAAAGATCAACGGAGTCACCTAGTGCAG	9210 fluorescence intensity (a.u.)
ACAAATTCCGTCCCTGGCCCAAAAGCGGGCTGCTGTTTCCCGGAGTCACCTAGTGCAG	8660 fluorescence intensity (a.u.)
TGTTGCTTAATTTCAGTCTCAGGCTTGCTTCTACTGTTTTCGGAGTCACCTAGTGCAG	8790 fluorescence intensity (a.u.)
ACAGTGCTCCTTCTTCTACCTCTGGACAGAGCCGAGCTCTCGGAGTCACCTAGTGCAG	9320 fluorescence intensity (a.u.)
ATCCAACTTATTGTAGAACCAACACCGTTCTATCATCCACCGGAGTCACCTAGTGCAG	8970 fluorescence intensity (a.u.)

Reference: publication PMC7819943, “Rice protein-binding microarrays: a tool to detect cis-acting elements near promoter regions in rice”
